# Experimental data from the supplement of paper PMC10849652.
# Amino acid sequences for entries named in this document (tags omitted). A change or cut given only in a name is not applied to a line headed by its entry.
# UniProt Q15269: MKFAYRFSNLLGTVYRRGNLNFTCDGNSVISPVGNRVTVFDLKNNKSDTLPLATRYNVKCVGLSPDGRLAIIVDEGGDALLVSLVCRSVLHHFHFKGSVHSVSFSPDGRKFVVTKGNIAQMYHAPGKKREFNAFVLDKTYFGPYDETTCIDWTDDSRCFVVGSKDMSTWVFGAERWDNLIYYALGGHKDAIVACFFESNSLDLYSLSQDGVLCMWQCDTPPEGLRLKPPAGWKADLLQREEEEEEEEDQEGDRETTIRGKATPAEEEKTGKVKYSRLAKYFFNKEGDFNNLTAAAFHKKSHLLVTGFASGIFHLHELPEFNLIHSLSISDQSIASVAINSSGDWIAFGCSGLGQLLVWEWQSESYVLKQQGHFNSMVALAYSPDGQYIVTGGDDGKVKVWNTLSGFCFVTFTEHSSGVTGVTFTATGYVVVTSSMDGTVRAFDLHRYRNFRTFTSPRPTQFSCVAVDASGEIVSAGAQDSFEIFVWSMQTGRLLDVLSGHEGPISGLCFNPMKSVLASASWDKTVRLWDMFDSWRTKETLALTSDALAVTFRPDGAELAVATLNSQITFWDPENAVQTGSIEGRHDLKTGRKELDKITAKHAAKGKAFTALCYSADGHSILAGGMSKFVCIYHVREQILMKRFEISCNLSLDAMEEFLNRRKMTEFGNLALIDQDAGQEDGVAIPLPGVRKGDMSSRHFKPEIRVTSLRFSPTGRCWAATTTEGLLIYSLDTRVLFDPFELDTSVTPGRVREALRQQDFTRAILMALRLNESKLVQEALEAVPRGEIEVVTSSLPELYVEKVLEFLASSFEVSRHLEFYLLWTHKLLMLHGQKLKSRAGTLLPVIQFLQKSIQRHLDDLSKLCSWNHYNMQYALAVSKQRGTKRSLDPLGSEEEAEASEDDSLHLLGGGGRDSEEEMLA
# UniProt Q9Y617: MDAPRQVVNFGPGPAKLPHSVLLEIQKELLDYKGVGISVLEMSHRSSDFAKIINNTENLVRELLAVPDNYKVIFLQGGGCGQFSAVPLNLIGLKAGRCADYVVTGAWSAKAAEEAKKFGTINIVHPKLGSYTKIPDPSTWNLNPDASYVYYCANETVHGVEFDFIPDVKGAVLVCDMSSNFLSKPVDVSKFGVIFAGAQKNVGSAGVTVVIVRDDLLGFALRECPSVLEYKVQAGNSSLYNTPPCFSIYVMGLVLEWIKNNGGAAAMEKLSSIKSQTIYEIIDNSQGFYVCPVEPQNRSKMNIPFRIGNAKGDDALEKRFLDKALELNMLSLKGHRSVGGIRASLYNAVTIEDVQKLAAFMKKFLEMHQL
# UniProt P18433: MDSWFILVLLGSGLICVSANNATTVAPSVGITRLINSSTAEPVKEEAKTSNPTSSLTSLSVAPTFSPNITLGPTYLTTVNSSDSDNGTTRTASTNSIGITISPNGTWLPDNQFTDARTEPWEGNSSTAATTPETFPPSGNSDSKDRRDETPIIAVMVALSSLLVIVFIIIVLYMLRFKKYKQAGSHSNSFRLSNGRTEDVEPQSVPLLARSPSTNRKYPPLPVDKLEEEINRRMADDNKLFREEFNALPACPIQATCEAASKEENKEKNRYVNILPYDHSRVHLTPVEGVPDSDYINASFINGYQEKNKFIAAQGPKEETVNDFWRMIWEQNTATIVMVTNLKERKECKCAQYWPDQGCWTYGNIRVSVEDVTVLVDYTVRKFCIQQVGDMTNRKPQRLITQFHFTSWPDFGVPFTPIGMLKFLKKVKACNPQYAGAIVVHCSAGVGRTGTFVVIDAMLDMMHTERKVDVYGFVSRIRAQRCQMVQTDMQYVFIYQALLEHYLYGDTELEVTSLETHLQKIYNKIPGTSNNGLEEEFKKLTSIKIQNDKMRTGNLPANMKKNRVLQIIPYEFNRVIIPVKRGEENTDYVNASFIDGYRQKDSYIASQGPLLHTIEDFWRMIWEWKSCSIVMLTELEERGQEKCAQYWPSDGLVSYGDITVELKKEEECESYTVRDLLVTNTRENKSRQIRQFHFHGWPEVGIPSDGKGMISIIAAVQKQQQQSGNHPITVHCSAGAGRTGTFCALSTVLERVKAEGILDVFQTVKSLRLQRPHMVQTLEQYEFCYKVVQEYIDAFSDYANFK
# UniProt Q9H974: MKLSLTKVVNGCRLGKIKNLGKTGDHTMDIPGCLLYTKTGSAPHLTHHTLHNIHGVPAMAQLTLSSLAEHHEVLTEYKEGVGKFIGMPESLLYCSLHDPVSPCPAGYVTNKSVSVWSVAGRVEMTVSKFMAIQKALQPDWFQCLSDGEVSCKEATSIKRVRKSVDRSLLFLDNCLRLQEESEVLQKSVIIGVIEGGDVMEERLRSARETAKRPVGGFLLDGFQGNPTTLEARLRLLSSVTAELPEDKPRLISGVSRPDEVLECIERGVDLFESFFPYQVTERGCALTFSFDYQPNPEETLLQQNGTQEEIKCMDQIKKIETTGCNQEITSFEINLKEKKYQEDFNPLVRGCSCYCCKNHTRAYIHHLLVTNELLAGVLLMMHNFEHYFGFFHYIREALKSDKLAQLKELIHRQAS
# UniProt O00232: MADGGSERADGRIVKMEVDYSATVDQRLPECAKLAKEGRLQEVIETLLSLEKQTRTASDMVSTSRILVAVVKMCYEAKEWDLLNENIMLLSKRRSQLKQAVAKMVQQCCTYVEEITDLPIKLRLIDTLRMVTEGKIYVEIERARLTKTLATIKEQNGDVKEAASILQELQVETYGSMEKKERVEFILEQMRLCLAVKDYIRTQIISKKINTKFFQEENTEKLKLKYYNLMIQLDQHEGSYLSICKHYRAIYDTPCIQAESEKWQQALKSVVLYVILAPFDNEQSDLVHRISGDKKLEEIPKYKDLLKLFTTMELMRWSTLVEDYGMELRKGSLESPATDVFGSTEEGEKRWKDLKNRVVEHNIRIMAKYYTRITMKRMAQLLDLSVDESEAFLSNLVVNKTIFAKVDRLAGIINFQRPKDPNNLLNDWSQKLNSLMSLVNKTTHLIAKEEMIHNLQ
# UniProt Q9P2B2: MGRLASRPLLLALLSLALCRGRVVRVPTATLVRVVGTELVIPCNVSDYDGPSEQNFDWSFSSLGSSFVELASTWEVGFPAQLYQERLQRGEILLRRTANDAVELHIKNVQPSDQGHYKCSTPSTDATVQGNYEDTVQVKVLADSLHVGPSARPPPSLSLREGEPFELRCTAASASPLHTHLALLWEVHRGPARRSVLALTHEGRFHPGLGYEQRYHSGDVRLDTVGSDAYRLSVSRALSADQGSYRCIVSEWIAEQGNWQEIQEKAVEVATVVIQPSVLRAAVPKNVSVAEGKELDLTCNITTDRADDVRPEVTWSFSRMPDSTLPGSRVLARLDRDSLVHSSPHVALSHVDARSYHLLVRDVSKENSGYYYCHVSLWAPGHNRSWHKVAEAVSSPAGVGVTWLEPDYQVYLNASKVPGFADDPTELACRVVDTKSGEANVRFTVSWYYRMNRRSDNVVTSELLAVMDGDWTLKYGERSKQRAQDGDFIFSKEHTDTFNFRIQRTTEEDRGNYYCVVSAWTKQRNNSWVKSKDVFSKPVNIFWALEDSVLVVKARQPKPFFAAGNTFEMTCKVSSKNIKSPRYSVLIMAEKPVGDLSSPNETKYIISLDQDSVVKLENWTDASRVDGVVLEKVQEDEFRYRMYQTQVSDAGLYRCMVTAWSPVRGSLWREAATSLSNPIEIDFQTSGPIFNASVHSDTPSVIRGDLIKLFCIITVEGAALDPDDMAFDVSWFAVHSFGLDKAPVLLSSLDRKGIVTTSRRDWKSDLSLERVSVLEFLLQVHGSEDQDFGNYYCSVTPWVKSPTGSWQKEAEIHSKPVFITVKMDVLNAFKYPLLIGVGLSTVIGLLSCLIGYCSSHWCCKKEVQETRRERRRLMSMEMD
# UniProt P62191: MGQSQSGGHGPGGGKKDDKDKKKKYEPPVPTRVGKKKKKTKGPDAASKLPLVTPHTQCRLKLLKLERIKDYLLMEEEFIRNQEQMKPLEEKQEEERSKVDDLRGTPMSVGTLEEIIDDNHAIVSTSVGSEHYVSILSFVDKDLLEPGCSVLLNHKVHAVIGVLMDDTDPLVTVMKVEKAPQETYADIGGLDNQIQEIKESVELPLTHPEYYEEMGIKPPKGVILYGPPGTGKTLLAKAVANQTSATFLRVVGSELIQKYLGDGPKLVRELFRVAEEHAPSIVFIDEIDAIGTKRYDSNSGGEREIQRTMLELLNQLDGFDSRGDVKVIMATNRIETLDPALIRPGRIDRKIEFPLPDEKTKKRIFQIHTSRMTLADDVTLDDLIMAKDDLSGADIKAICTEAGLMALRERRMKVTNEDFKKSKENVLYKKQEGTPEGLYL
# UniProt P06454: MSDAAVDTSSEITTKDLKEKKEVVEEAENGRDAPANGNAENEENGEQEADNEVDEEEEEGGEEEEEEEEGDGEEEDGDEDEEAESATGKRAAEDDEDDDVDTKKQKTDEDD
# The list shows a part of the results.
# What was measured:
# Experiment in all cases: log2 fold change, soluble protein after heating vs DMSO (PISA); higher = thermal stabilisation; K562 cells, 10 uM, 30 min; active = over 0.2 and 3.5 SD of the protein, either way, in both replicates (recomputed)
# [1] = compound: CC1=C(C=C(C=C1)NC(=O)C2=CC(=CC=C2)C(C)(C)C#N)NC3=CC4=C(C=C3)N=CN(C4=O)C
# Procedure, shortened: (§1)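 K562 cells at 2×10^6 cells/mL were treated with 10 μM compound for 30 min. Aliquots were heated for 3 min across 48°C-58°C, pooled, and extracted in PBS with 0.5% NP-40 at 4°C; soluble protein was the supernatant after 21,000xg for 90 min. Soluble protein was quantified by TMTpro 16plex LC-MS/MS with channel sums equalised, and reported as log2 fold change in thermal stability against DMSO controls, with values from duplicates.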
# [2] = compound: CC1=C(C=C(C=C1)NC(=O)C2=CC(=CC=C2)N(C)C)NC(=O)C3=CC=C(C=C3)O
# Procedure, shortened: as §1
# [3] = compound: CC1=CC=C(C=C1)SC2=C3C=C(SC3=CN=C2)C(=O)N
# Procedure, shortened: as §1
# [4] = compound: CC1=NC(=CC=C1)C2=C(N=C(N2)C(C)(C)C)C3=CC4=NC=CN=C4C=C3
# Procedure, shortened: as §1
# Nexturastat A = compound: CCCCN(Cc1ccc(C(=O)NO)cc1)C(=O)Nc1ccccc1 [Nexturastat A]
# Procedure, shortened: as §1
# vemurafenib = compound: CCCS(=O)(=O)Nc1ccc(F)c(C(=O)c2c[nH]c3ncc(-c4ccc(Cl)cc4)cc23)c1F [vemurafenib]
# Procedure, shortened: as §1
# [5] = compound: CCCS(=O)(=O)Nc1ccc(F)c(C(=O)c2c[nH]c3ncc(Cl)cc23)c1F
# Procedure, shortened: as §1
# [6] = compound: CCCc1cc(C)[nH]c(=O)c1CNC(=O)c1cc(-c2ccnc(N3CCN(C)CC3)c2)cc2c1cnn2C(C)C
# Procedure, shortened: as §1
# givinostat = compound: CCN(CC)Cc1ccc2cc(COC(=O)Nc3ccc(C(=O)NO)cc3)ccc2c1 [givinostat]
# Procedure, shortened: as §1
# barasertib = compound: CCN(CCCOc1ccc2c(Nc3cc(CC(=O)Nc4cccc(F)c4)[nH]n3)ncnc2c1)CCOP(=O)(O)O [barasertib]
# Procedure, shortened: as §1
# [7] = compound: CC[C@@H]1C(=O)N(C)c2cnc(Nc3ccc(C(=O)NC4CCN(C)CC4)cc3OC)nc2N1C1CCCC1
# Procedure, shortened: as §1
# volasertib = compound: CC[C@@H]1C(=O)N(C)c2cnc(Nc3ccc(C(=O)N[C@H]4CC[C@H](N5CCN(CC6CC6)CC5)CC4)cc3OC)nc2N1C(C)C [volasertib]
# Procedure, shortened: as §1
# [8] = compound: CC[C@H](C)N1C=C(C2=C(C=C(C=C21)C3=CN=C(C=C3)N4CCNCC4)C(=O)NCC5=C(C=C(NC5=O)C)C)C
# Procedure, shortened: as §1
# epoxomicin = compound: CC[C@H](C)[C@@H](C(=O)N[C@@H]([C@@H](C)O)C(=O)N[C@@H](CC(C)C)C(=O)[C@]1(CO1)C)NC(=O)[C@H]([C@@H](C)CC)N(C)C(=O)C [epoxomicin]
# Procedure, shortened: as §1
# [9] = compound: CCn1c(C(=O)N(C2CC2)C2CC2)cc2c3c(ncn3C)c(Nc3cc(C)n(C)n3)nc21
# Procedure, shortened: as §1
# [10] = compound: CCn1cc(-c2ccnc3[nH]c(-c4cccc(CN(C)C)c4)cc23)c(-c2ccc(NC(=O)N(C)C)cc2)n1
# Procedure, shortened: as §1
# [11] = compound: CN(C)CC(=O)Nc1ccc2[nH]c(=O)c3ccccc3c2c1
# Procedure, shortened: as §1
# rosiglitazone = compound: CN(CCOC1=CC=C(C=C1)C[C@H]2C(=O)NC(=O)S2)C3=CC=CC=N3 (racemic) [rosiglitazone]
# Procedure, shortened: as §1
# [12] = compound: CN1C2=C(C3=C1C(=O)N(N=C3)CC4=CC(=CC=C4)N)SC(=C2)S(=O)C
# Procedure, shortened: as §1
# [13] = compound: CN1CCC(CNc2ccc3ncc(-c4cccc(OC(F)(F)F)c4)n3n2)CC1
# Procedure, shortened: as §1
Target,log2 fold change [1],log2 fold change [2],log2 fold change [3],log2 fold change [4],log2 fold change (Nexturastat A),log2 fold change (vemurafenib),log2 fold change [5],log2 fold change [6],log2 fold change (givinostat),log2 fold change (barasertib),log2 fold change [7],log2 fold change (volasertib),log2 fold change [8],log2 fold change (epoxomicin),log2 fold change [9],log2 fold change [10],log2 fold change [11],log2 fold change (rosiglitazone),log2 fold change [12],log2 fold change [13]
PWP2 (UniProt Q15269),inactive: -0.007,inactive: -0.042,inactive: -0.059,inactive: -0.016,inactive: 0.189,inactive: 0.001,inactive: 0.093,inactive: 0.068,inactive: 0,inactive: 0.061,inactive: 0.057,inactive: -0.159,inactive: 0.04,inactive: 0.06,inactive: -0.003,inactive: 0.052,inactive: -0.006,inactive: -0.068,inactive: 0.193,inactive: 0.114
PSAT1 (UniProt Q9Y617),inactive: 0.023,inactive: -0.001,inactive: 0.002,inactive: 0.033,inactive: -0.074,inactive: 0.022,inactive: 0.026,inactive: -0.004,inactive: -0.065,inactive: 0.007,inactive: -0.016,inactive: 0.057,inactive: -0.017,inactive: 0.017,inactive: 0,inactive: 0,inactive: -0.016,inactive: -0.029,inactive: -0.05,inactive: 0.006
PTPRA (UniProt P18433),inactive: -0.087,inactive: 0.024,inactive: -0.002,inactive: 0.021,inactive: -0.05,inactive: 0.066,inactive: 0.002,inactive: -0.016,inactive: 0.031,inactive: 0,inactive: 0.009,inactive: -0.214,inactive: 0.029,inactive: 0.003,inactive: 0.006,inactive: -0.008,inactive: 0.089,inactive: 0.006,inactive: -0.031,inactive: 0.036
QTRT2 isoform 4 (UniProt Q9H974),inactive: -0.003,inactive: -0.033,inactive: -0.001,inactive: 0,inactive: -0.054,inactive: -0.009,inactive: 0.008,inactive: -0.132,inactive: -0.112,inactive: 0.013,inactive: 0.023,inactive: 0.05,inactive: 0,inactive: 0.023,inactive: -0.015,inactive: -0.028,inactive: -0.002,inactive: 0.011,inactive: -0.056,inactive: -0.052
PSMD12 (UniProt O00232),inactive: 0.066,inactive: -0.004,inactive: -0.005,inactive: -0.011,inactive: 0.047,inactive: -0.031,inactive: 0.009,inactive: 0.052,inactive: -0.002,inactive: -0.044,inactive: 0.03,inactive: 0.158,inactive: 0.02,inactive: -0.278,,inactive: 0.017,inactive: -0.007,,inactive: 0.01,inactive: 0.062
PTGFRN (UniProt Q9P2B2),inactive: -0.044,inactive: -0.025,inactive: 0.006,inactive: -0.012,inactive: -0.021,inactive: 0.013,inactive: -0.045,inactive: -0.03,inactive: 0.007,inactive: -0.043,inactive: 0.032,inactive: 0.008,inactive: 0,inactive: 0.014,,inactive: -0.049,inactive: -0.01,,inactive: -0.104,inactive: 0.181
PSMC1 (UniProt P62191),inactive: 0.024,inactive: 0.033,inactive: -0.038,inactive: -0.069,inactive: 0.026,inactive: -0.064,inactive: -0.06,inactive: -0.012,inactive: -0.073,inactive: -0.073,inactive: 0.038,inactive: 0.129,inactive: -0.015,active: -0.342,,inactive: 0.092,inactive: -0.003,,inactive: 0.031,inactive: 0.051
PTMA (UniProt P06454),inactive: 0.133,inactive: -0.041,inactive: 0.053,inactive: 0.213,inactive: -0.077,inactive: 0.05,inactive: -0.044,inactive: -0.008,inactive: -0.022,inactive: -0.013,inactive: -0.167,inactive: 0.112,inactive: -0.064,inactive: 0.2,,inactive: -0.009,inactive: -0.01,,inactive: -0.027,inactive: -0.052
